Reference: US12558397B2, “Composition for prevention, amelioration, or treatment of urination-related diseases comprising cephalotocin” (KOREA RESEARCH INSTITUTE OF CHEMICAL TECHNOLOGY, priority 2020, dated 2026)
At least one peptide structure holds a part that was inferred or is arguable (an end, a ring closure or a residue). Where a SMILES comes first, the peptide text is derived from it.

The chains behind the UniProt entries cited, without tags or fusion partners. Where a name states a change or a piece, a line headed by the entry shows the natural chain unless it says otherwise.
UniProt P37288, whole entry: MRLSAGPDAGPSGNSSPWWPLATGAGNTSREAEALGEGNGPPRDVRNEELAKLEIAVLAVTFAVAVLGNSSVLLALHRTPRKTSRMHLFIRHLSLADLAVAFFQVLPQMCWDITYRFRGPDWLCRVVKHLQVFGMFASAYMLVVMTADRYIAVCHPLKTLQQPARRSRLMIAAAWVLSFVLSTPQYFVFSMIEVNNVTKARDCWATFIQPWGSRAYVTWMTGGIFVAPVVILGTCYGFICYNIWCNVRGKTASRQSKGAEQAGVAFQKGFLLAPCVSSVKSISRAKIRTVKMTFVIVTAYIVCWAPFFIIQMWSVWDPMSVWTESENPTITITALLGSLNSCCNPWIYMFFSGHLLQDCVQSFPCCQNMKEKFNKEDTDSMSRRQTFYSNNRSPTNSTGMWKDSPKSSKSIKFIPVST
UniProt P30518, whole entry: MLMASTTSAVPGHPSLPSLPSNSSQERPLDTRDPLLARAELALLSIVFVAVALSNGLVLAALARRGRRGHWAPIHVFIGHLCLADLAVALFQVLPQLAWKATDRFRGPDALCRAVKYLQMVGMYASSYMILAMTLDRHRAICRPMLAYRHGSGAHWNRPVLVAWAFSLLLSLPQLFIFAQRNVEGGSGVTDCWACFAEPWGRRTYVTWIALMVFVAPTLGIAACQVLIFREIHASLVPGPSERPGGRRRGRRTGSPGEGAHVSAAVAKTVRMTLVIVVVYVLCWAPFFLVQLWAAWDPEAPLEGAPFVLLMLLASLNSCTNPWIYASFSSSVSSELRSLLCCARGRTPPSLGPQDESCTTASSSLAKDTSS

Experiments:
[1] = biological target: T1, human vasopressin V1B receptor (Homo sapiens, UniProt P47901); assay: Vasopressin receptor V1BR activity/inhibitory effect, intracellular calcium by calcium dye fluorescence imaging; type: cell-based; details: RBL cells overexpressing human V1B receptor
T1 construct: expressed in transfected cells; host or cells: RBL (basophilic leukemia) cells
T1 sequence (P47901 1-424): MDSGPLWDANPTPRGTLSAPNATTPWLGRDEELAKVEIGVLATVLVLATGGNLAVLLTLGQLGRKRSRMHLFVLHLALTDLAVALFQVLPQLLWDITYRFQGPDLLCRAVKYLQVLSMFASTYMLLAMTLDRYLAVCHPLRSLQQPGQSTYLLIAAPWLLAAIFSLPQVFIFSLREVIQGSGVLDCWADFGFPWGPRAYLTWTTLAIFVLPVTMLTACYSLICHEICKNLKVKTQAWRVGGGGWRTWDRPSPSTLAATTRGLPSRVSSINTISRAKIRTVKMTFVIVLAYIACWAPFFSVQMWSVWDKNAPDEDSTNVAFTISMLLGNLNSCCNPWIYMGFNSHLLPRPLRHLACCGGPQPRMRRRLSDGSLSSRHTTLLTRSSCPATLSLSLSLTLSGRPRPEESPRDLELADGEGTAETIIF
Experimental: (§1) Recombinant human vasopressin V1B receptor-overexpressing murine basophilic leukemia (cell line name: RBL) was cultured and treated with cephalotocin at different concentrations at room temperature, and the change in intracellular calcium concentration induced by cephalotocin-vasopressin V1B receptor binding was measured by the calcium dye fluorescence imaging method.
The results confirming the regulatory effect on the receptors OXTR, V1AR, V1BR and V2R by Octopus vulgaris octopressin are shown in FIGS. 3 and 4, respectively.

[2] = Antidiuretic effect in SD rats, urine volume and osmolality in metabolic cage; type: in vivo, SD rats (Sprague-Dawley rats); details: single tail vein injection of 0.1 mg/ml solution at 1 ml per kg
[3] = biological target: T2, human vasopressin V1A receptor (Homo sapiens, UniProt P37288); assay: Vasopressin receptor V1AR activity/inhibitory effect, intracellular calcium by calcium dye fluorescence imaging; type: cell-based; details: CHO cells overexpressing human V1A receptor, with vasopressin 10 nM, read-out: IC50, inhibition of the V1A receptor
T2 construct: expressed in transfected cells; host or cells: CHO (Chinese hamster ovary) cells
Experimental: as §1, with “V1A” for “V1B”, “Chinese hamster ovary cells” for “murine basophilic leukemia”, “CHO) were” for “RBL) was”
To confirm the receptor inhibitory effect, the response to increasing the intracellular calcium concentration that vasopressin 10 nM may cause was taken as 100% standard, and the relative magnitude of the response induced when treated with vasopressin 10 nM and cephalotocin simultaneously was measured.
(§2) . The results confirming the regulatory effect on the receptors OXTR, V1AR, V1BR and V2R by Octopus vulgaris octopressin are shown in FIGS. 3 and 4, respectively.

[4] = biological target: T3, human vasopressin V2 receptor (Homo sapiens, UniProt P30518); assay: Vasopressin receptor V2R activity/inhibitory effect, intracellular cAMP by HTRF; type: cell-based; details: CHO cells overexpressing human V2 receptor, cAMP accumulated for 30 minutes, vasopressin 1 nM response = 100%; read-out: EC50, activation of the V2 receptor
T3 construct: expressed in transfected cells; host or cells: CHO (Chinese hamster ovary) cells
Experimental: Recombinant human vasopressin V2 receptor-overexpressing Chinese hamster ovary cells (cell line name: CHO) were cultured and treated with cephalotocin at different concentrations at room temperature for 30 minutes, and intracellular cAMP concentration accumulated for 30 minutes by cephalotocin-vasopressin V2 receptor binding was measured by the HTRF fluorescence imaging method. […]. To confirm the receptor inhibitory effect, the response to increasing the intracellular cAMP concentration that vasopressin 0.03 nM may cause for 30 minutes was taken as 100% standard, and the relative magnitude of the response induced when treated with vasopressin 0.03 nM and cephalotocin simultaneously was measured.
as §2

[5] = 22 hours, vs physiological saline

CC[C@H](C)[C@H](NC(=O)[C@@H]1CCCN1C(=O)[C@@H]1CSSC[C@H](N)C(=O)N[C@@H](Cc2ccc(O)cc2)C(=O)N[C@@H](Cc2ccccc2)C(=O)N[C@@H](CCCNC(=N)N)C(=O)N[C@@H](CC(N)=O)C(=O)N1)C(=O)NCC(N)=O [cephalotocin] (HELM PEPTIDE1{C.Y.F.R.N.C.P.I.G.[am]}$PEPTIDE1,PEPTIDE1,1:R3-6:R3$$$V2.0; N-terminus and C-terminus assumed; bridges inferred)
EC50 ([1]; vasopressin 0.1 μM response = 100%, read-out: EC50, activation of the V1B receptor): 11 nM | IC50 ([1]; with vasopressin 5 nM, read-out: IC50, inhibition of the V1B receptor in the presence of vasopressin): 93 nM | Increase of urine osmolality compared to the control group [2, 5]: about 49% | Reduction of urine volume compared to the control group [2, 5]: about 40% | Average urine osmolality ([2]; urine collected for 22 hours): 858 mOsm/kg | Urine volume ([2]; urine collected for 22 hours, group average): 11 mL | IC50 [3]: 1300 nM | EC50 [4]: 9.1 nM
